Measurements from publication doi:10.1101/822957.
These are yes or no findings as the source states them, for the method shown. For some of these results: Binding seen in cells or lysates may run through a third protein. Some results given as binding are weak or reduced against the parent protein; the word gives no strength.

Protein sequences, listed by entry. Tags and fused reporters are not part of them. Lines headed by an entry give the natural chain unless they say otherwise; changes in a name come on top. Chains listed by the source or under a name are the forms on record and can include a tag or linker. Residues count along the entry.
UniProt P08908: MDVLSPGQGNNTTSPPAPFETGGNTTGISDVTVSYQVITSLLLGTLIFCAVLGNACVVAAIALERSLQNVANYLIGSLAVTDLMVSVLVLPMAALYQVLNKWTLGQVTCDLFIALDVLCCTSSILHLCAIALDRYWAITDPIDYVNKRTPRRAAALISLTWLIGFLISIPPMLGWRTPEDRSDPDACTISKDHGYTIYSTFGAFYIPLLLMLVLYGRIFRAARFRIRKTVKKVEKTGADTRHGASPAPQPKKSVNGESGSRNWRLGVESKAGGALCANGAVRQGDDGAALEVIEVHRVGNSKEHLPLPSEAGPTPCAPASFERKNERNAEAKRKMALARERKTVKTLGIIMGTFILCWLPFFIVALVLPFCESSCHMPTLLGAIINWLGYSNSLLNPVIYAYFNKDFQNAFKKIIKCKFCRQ
UniProt P28222: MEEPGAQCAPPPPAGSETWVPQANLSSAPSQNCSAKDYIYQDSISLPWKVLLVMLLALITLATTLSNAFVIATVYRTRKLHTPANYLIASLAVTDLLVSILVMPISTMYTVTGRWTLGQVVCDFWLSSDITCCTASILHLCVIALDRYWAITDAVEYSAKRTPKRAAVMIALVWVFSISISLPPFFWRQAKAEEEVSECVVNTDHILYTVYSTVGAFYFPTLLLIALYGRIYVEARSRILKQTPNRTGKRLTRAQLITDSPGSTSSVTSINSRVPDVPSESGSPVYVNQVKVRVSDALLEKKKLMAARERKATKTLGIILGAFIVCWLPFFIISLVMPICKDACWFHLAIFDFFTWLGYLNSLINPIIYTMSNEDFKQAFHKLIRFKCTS
Arr2 (1-393, wild type) with SmBiT at its N-terminus (P49407, residues 1-393): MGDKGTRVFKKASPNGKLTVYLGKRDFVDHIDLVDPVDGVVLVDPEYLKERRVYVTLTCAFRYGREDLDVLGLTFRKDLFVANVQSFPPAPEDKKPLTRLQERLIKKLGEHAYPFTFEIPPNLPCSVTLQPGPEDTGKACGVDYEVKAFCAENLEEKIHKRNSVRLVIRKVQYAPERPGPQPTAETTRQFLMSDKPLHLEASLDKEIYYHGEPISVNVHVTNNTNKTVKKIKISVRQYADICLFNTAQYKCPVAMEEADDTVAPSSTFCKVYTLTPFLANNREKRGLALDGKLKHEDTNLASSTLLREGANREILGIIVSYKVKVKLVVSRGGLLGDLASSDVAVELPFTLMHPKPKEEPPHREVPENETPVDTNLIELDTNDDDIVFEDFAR
Arr2 (1-393, 3A) with SmBiT at its N-terminus (P49407, form named): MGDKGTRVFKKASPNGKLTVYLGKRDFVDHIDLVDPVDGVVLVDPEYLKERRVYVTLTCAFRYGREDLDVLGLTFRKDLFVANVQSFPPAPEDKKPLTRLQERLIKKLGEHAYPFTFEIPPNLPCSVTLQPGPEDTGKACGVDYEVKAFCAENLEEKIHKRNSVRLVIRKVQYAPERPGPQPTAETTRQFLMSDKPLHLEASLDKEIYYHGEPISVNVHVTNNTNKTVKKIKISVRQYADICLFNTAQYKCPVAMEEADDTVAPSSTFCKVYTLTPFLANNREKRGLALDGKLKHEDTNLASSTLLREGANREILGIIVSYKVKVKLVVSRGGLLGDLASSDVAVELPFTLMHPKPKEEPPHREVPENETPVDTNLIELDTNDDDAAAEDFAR

How the values were obtained:
[1] = target: NTSR1 (1-418, wild type)-TEV site-tTA (human) (UniProt P30989); test: Tango assay
[2] = target: 5-HTR1A (NanoBiT construct) (UniProt P08908); test: split reporter
[3] = target: 5-HTR1B (NanoBiT construct) (UniProt P28222); test: split reporter
[4] = target: NTSR1 (1-418, wild type) with LgBiT at its C-terminus (human) (UniProt P30989); test: split reporter

| binding [1] | binding [2] | binding [3] | binding [4] | Substance |
| --- | --- | --- | --- | --- |
| binds |  |  |  | Arr2 3A mutant-TEV protease (from UniProt P49407 1-393) |
|  | binds | binds | binds | Arr2 (1-393, 3A) with SmBiT at its N-terminus (from UniProt P49407 1-393) |
|  | binds | binds | binds | Arr2 (1-393, wild type) with SmBiT at its N-terminus (from UniProt P49407 1-393) |
